Measured values reported in patent publication US20180280423A1.
Results are given in words; binding and its absence hold for the method and conditions named. For part of these data: In cells and extracts the contact can be indirect. Some entries that bind do so weakly or less than the wild type.

Key:
[1] = target: phosphorylated EGFR (human) (UniProt P00533); experiment: proximity ligation assay in OECM1-Ctx^R cells, phosphorylated EGFR
[2] = target: EGFR intracellular domain (EGFR-ICD) (human) (UniProt P00533); experiment: interaction with EGFR domain constructs (method not named)
[3] = target: EGFR extracellular domain (EGFR-ECD) (human) (UniProt P00533); experiment: as above

Measured: binding

B1: Lymphotoxin-β (LTβ) (ligand)
chain: MGALGLEGRGGRLQGRGSLLLAVAGATSLVTLLLAVPITVLAVLALVPQDQGGLVTETADPGAQAQQGLGFQKLPEEEPETDLSPGLPAAHLIGAPLKGQGLGWETTKEQAFLTSGTQFSDAEGLALPQDGLYYLYCLVGYRGRAPPGGGDPQGRSVTLRSSLYRAGGAYGPGTPELLLEGAETVTPVLDPARRQGYGPLWYTSVGFGGLVQLRRGERVYVNISHPDMVDFARGKTFFGAVMVG
binds: all assays above
